Data taken from the supplement of paper PMC12067093, “Discovery and optimisation of a covalent ligand for TRIM25 and its application to targeted protein ubiquitination” (Chemical Science, 2025).
The other results are listed elsewhere or left out.

Protein sequences, listed by entry. Tags and fused reporters are not part of them. Lines headed by an entry give the natural chain unless they say otherwise; changes in a name come on top.
UniProt P27824: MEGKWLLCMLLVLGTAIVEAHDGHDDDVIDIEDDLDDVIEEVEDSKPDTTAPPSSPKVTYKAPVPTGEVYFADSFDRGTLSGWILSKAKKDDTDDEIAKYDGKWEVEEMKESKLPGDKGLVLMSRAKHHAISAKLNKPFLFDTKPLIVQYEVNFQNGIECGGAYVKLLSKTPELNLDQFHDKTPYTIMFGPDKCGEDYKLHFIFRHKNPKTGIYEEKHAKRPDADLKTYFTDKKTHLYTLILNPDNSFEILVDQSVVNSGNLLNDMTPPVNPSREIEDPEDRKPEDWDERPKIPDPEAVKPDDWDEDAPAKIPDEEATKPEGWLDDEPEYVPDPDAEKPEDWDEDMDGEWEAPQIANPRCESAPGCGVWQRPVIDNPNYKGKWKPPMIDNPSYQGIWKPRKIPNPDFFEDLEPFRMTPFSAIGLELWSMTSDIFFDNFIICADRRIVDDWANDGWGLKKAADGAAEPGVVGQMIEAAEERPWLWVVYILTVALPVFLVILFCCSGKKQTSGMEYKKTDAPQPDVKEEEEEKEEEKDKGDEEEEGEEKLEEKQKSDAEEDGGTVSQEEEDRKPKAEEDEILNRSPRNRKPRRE
UniProt P49368: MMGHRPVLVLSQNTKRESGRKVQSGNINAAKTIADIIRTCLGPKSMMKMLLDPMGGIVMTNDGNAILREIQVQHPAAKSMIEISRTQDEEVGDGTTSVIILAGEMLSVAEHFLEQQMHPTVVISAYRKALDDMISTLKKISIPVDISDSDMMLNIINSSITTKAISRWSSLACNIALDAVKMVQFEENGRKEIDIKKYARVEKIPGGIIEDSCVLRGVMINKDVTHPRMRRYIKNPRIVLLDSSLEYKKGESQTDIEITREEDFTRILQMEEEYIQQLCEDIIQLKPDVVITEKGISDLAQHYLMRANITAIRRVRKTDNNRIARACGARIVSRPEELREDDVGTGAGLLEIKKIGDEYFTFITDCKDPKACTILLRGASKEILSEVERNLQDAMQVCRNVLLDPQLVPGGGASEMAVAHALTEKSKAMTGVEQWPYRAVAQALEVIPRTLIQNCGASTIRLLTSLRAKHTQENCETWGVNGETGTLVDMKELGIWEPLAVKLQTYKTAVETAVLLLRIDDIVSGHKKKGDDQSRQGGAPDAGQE
UniProt Q5T0F9: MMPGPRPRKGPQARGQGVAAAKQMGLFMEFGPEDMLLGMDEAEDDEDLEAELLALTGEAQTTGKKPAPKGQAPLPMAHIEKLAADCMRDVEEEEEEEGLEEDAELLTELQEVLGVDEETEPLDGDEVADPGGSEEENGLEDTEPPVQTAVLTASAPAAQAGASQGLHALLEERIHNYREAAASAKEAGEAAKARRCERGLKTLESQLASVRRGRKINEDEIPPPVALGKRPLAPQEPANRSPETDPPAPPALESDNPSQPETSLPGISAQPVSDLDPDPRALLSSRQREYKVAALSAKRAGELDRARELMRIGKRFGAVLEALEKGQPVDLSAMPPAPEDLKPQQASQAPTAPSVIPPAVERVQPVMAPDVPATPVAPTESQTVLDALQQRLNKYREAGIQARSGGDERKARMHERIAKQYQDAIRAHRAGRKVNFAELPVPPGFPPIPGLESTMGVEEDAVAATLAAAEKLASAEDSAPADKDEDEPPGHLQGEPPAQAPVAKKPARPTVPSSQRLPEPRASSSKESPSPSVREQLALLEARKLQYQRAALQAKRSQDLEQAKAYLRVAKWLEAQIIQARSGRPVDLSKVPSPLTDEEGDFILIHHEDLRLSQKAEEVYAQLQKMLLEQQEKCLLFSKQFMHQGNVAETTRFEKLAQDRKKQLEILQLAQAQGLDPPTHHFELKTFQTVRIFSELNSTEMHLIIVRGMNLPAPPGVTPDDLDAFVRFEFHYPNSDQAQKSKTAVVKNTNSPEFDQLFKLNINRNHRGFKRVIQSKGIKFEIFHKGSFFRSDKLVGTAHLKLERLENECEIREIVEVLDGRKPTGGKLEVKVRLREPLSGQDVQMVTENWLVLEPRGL
UniProt Q9H257: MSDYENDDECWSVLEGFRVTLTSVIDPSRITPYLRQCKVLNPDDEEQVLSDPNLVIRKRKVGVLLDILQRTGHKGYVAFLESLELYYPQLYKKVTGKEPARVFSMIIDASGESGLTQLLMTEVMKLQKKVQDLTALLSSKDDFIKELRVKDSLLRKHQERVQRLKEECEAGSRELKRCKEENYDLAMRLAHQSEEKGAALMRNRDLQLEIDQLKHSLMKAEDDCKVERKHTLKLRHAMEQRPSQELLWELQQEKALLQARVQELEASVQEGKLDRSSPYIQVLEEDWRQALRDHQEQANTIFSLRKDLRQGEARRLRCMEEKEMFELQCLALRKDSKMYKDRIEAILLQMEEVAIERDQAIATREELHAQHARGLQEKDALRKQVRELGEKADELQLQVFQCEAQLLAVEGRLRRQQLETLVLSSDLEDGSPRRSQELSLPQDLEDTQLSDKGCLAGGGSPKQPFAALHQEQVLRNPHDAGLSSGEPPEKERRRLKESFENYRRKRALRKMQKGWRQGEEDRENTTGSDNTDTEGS
UniProt Q96A33: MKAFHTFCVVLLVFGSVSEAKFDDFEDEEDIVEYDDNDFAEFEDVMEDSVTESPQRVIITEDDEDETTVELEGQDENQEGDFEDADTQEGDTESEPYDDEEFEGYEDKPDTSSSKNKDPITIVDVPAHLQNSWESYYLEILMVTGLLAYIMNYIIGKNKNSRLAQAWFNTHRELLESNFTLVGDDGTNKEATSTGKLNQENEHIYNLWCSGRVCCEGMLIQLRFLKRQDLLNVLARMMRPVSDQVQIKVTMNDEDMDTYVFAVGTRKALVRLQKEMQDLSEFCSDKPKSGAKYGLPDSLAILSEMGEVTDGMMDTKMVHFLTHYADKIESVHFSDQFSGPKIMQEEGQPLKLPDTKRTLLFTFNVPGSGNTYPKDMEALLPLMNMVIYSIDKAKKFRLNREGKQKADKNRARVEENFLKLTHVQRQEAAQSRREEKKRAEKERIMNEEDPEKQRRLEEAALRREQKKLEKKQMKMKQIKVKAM
UniProt Q01518, whole entry, looked up: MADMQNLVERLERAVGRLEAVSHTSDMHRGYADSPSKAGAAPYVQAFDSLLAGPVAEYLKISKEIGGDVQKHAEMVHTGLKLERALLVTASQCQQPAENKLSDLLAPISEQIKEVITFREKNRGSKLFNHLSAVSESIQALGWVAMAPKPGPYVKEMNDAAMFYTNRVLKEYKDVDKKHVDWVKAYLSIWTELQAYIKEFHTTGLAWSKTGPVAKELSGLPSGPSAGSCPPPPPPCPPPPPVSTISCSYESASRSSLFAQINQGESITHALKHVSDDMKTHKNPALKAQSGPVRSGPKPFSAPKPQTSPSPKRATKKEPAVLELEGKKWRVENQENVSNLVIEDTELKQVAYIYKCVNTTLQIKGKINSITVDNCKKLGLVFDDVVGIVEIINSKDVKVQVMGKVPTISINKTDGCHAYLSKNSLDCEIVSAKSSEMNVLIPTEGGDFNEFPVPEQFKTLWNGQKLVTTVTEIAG
UniProt Q14790: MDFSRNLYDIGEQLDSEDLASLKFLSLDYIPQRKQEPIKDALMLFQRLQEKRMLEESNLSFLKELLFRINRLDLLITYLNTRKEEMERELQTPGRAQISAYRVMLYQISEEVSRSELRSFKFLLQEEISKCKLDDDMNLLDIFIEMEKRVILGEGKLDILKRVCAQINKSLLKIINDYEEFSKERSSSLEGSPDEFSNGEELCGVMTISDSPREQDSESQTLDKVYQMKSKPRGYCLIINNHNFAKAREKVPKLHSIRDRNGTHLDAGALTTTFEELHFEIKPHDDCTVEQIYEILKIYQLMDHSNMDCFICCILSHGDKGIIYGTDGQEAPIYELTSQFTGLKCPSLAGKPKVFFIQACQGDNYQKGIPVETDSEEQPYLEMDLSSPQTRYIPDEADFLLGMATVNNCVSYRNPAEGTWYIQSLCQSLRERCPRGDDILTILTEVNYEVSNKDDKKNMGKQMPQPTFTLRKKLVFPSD
UniProt P42575: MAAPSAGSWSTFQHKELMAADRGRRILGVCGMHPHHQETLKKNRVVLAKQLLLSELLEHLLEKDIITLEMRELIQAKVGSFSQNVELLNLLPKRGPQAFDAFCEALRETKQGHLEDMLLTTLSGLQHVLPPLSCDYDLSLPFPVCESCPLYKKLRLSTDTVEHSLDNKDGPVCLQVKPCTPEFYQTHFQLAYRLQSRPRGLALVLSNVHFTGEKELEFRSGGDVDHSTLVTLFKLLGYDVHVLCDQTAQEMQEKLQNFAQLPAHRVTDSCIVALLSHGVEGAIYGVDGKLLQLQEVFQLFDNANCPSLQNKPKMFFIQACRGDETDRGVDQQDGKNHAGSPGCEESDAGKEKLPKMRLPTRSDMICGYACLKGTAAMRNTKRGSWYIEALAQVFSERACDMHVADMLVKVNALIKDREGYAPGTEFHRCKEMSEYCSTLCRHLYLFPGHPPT
UniProt P47756, whole entry, looked up: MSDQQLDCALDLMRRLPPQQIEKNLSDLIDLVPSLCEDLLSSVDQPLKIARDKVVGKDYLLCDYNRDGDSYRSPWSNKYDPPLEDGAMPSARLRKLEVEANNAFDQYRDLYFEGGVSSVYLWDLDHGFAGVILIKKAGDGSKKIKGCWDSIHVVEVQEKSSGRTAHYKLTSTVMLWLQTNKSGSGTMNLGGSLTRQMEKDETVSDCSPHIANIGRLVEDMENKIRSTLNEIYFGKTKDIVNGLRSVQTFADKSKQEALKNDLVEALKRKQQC
UniProt P29466: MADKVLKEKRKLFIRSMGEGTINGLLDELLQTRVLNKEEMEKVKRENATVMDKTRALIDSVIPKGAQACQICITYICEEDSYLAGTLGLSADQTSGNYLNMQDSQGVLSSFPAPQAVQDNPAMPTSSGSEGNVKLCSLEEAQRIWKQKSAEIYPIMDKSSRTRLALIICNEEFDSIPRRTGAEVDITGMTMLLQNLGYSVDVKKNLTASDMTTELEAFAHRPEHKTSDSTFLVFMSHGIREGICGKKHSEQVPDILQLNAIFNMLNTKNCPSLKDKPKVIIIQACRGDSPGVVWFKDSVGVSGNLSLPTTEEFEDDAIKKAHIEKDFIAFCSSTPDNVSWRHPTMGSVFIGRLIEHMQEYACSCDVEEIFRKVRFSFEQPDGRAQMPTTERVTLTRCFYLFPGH
UniProt P07384: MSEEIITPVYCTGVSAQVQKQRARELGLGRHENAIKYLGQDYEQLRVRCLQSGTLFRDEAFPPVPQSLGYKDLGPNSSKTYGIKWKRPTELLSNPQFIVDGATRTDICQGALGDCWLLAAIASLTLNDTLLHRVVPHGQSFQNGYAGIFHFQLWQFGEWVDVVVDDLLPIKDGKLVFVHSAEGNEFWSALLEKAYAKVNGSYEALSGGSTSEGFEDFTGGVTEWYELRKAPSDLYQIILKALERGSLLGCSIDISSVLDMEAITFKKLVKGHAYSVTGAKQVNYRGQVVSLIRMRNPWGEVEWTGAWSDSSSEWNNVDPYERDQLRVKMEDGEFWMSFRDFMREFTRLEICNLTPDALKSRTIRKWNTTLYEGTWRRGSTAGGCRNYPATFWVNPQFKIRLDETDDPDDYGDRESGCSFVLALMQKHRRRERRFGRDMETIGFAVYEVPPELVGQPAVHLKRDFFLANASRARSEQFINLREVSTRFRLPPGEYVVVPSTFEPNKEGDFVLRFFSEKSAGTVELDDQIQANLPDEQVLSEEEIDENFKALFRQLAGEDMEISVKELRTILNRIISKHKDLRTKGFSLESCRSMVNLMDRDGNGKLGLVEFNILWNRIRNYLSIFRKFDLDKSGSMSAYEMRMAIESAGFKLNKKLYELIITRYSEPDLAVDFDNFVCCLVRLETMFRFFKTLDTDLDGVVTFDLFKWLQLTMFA
UniProt Q96LW7: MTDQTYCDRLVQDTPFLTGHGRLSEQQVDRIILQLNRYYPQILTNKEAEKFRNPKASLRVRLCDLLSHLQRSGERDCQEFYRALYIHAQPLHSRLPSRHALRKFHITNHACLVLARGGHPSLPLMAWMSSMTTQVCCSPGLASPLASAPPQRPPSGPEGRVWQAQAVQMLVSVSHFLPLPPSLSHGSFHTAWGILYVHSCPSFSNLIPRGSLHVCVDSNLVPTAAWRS
UniProt P78371: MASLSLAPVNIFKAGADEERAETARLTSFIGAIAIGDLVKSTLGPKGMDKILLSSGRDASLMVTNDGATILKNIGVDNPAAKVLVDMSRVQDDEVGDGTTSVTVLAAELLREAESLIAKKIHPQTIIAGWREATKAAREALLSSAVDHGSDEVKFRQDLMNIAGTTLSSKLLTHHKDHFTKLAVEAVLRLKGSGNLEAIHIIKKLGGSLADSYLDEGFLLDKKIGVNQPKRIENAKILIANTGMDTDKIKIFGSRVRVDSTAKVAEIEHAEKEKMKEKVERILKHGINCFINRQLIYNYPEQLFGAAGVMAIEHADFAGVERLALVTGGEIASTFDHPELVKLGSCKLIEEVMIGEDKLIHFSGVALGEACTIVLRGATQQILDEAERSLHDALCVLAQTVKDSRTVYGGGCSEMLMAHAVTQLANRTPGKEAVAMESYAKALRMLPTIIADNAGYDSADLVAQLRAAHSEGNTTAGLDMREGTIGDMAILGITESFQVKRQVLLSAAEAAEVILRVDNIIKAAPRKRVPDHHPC

Compound: CC1Cc2ccccc2N1C(=O)C1CCCN(C1)C(=O)CCl (mixture of isomers) [TRIM25 ligand 11 (diastereomer mixture)]
Experiment: probe-labelled cysteine peptide fold change vs DMSO (competition) (log2 fold change); higher = less target engagement (more negative = stronger competition)
Conditions: THP-1, incubation time: 4 h
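Also: competitive chemoproteomic profiling in live THP-1 cells with an iodoacetamide desthiobiotin (IA-DTB) probe, comparing probe-labelled peptide intensities in compound-treated cells against DMSO-treated controls.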

Row | Target | probe-labelled cysteine peptide fold change (10 µM) | probe-labelled cysteine peptide fold change (50 µM)
1 | CCDC50_Q8IVM0_85_DLEQQDCEIAQEIQEK (UniProt Q8IVM0) | -0.0746 | -0.201
2 | CANX_P27824_360_CESAPGCGVWQR (UniProt P27824) | 0.0154 | 0.0772
3 | CCAR1_Q8IX12_465_SCALAEDPQELR (UniProt Q8IX12) | 0.0332 | 0.0777
4 | CBFA2T2_O43439_357_HLDHALNCIMEMVEK (UniProt O43439) | -0.043 | -0.0541
5 | CASP7_P55210_70_CIIINNK (UniProt P55210) | 0.00656 | 0.0125
6 | CCDC51_Q96ER9_331_TCSQMAGVVQLVK (UniProt Q96ER9) | -0.0573 | -0.0324
7 | CCT3_P49368_40_TCLGPK (UniProt P49368) | 0.0333 | 0.119
8 | CC2D1B_Q5T0F9_86_LAADCMR (UniProt Q5T0F9) | -0.187 | -0.334
9 | CCNY_Q8ND76_39_EDTGCNLQHISDRENIDDLNMEFNPSDHPR (UniProt Q8ND76) | 0.0996 | -0.159
10 | CBFA2T3_O75081_405_HLNNLLNCIMDMVEK (UniProt O75081) | -0.0116 | -0.0986
11 | CASKIN2_Q8WXE0_185_VAQLLLNSHLCVALLEGEAKDPCDPNYTTPLHLAAK (UniProt Q8WXE0) | 0.081 | -0.347
12 | CCDC117_Q8IWD4_81_REEEEDDDCPVR (UniProt Q8IWD4) | -0.116 | 0.115
13 | CARD9_Q9H257_329_EMFELQCLALR (UniProt Q9H257) | -0.0386 | 0.114
14 | CAPN7_Q9Y6W3_361_KVIIDDQLPVDHKGELLCSYSNNK (UniProt Q9Y6W3) | -0.139 | -0.115
15 | CCDC47_Q96A33_214_VCCEGMLIQLR (UniProt Q96A33) | 0.03 | 0.0289
16 | CARS2_Q9HA77_526_QPLLEACDTLR (UniProt Q9HA77) | 0.0288 | 0.297
17 | CBX1_P83916_156_CPQVVISFYEER (UniProt P83916) | 0.0723 | -0.0323
18 | CCDC88B_A6NC98_1228_LTTQCELLTQLR (UniProt A6NC98) | 0.0742 | -0.0454
19 | CARD9_Q9H257_168_LKEECEAGSR (UniProt Q9H257) | -0.0606 | 0.0755
20 | CAP1_Q01518_93_ALLVTASQCQQPAENK (UniProt Q01518) | 0.00612 | -0.135
21 | CCDC106_Q9BWC9_184_DADGVLCR (UniProt Q9BWC9) | 0.013 | -0.0172

Row | Target | probe-labelled cysteine peptide fold change (10 µM) | probe-labelled cysteine peptide fold change (50 µM)
22 | CCDC82_Q8N4S0_422+424_NPENCSCQACGLHR (UniProt Q8N4S0) | 0.343 | 0.0726
23 | CCAR2_Q8N163_515_RNAETPEATTQQETDTDLPEAPPPPLEPAVIARPGCVNLSLHGIVEDR (UniProt Q8N163) | 0.0498 | -0.0585
24 | CASP8_Q14790_345_CPSLAGKPK (UniProt Q14790) | -0.0611 | -0.0798
25 | CCAR1_Q8IX12_376_FSLDCPSCDMMELR (UniProt Q8IX12) | -0.107 | 0.0228
26 | CAP1_Q01518_375_GKINSITVDNCKK (UniProt Q01518) | -0.531 | -0.366
27 | CAPN7_Q9Y6W3_704_WSGQSAGGCGNFQETHK (UniProt Q9Y6W3) | 0.0509 | -0.00887
28 | CASP2_P42575_179_DGPVCLQVKPCTPEFYQTHFQLAYR (UniProt P42575) | 0.13 | -0.0808
29 | CAPN15_O75808_101_GSCQEEAGPVR (UniProt O75808) | -0.0901 | -0.228
30 | CCT4_P50991_120_AQDIEAGDGTTSVVIIAGSLLDSCTK (UniProt P50991) | -4.03e-05 | 0.108
31 | CARD9_Q9H257_329_EMFELQCLALRK (UniProt Q9H257) | -0.507 | -0.3
32 | CARS_P49589_55_VTWYCCGPTVYDASHMGHAR (UniProt P49589) | -0.00365 | -0.0089
33 | CBFB_Q13951_107_APMILNGVCVIWK (UniProt Q13951) | -0.0282 | -0.0312
34 | CAPZB_P47756_8_SDQQLDCALDLMR (UniProt P47756) | -0.338 | 0.114
35 | CCNA2_P20248_390_TGYTLESLKPCLMDLHQTYLK (UniProt P20248) | 0.156 | -0.0607
36 | CASP1_P29466_362+364_LIEHMQEYACSCDVEEIFRK (UniProt P29466) | -0.216 | -0.157
37 | CASP8_Q14790_309+312+313_IYQLMDHSNMDCFICCILSHGDK (UniProt Q14790) | 0.153 | 0.113
38 | CAPNS1_P04632_232_YSDESGNMDFDNFISCLVR (UniProt P04632) | 0.216 | 0.0576
39 | CAT_P04040_460_LCENIAGHLK (UniProt P04040) | -0.0735 | -0.0901
40 | CARS_P49589_182_LTGEEVNSCVEVLLEEAK (UniProt P49589) | -0.0351 | -0.207
41 | CAT_P04040_460_RLCENIAGHLK (UniProt P04040) | -0.043 | 0.0536
42 | CASP8_Q14790-2_188_GEELCGVMTISDSPR (UniProt Q14790) | 0.134 | 0.085

2 records drawn at random from those above, as already listed:
Row | Target | probe-labelled cysteine peptide fold change (10 µM) | probe-labelled cysteine peptide fold change (50 µM)
38 | CAPNS1_P04632_232_YSDESGNMDFDNFISCLVR (UniProt P04632) | 0.216 | 0.0576
37 | CASP8_Q14790_309+312+313_IYQLMDHSNMDCFICCILSHGDK (UniProt Q14790) | 0.153 | 0.113

(continued)

Row | Target | probe-labelled cysteine peptide fold change (10 µM) | probe-labelled cysteine peptide fold change (50 µM)
43 | CAPZA2_P47755_157_KIDGQQTIIACIESHQFQAK (UniProt P47755) | 0.0477 | 0.155
44 | CAPZA2_P47755_111_KEATDPRPCEVENAVESWR (UniProt P47755) | -0.0477 | -0.0894
45 | CAPN7_Q9Y6W3_329_DGEPEYNPCGK (UniProt Q9Y6W3) | 0.0278 | 0.0321
46 | CBR3_O75828_150_AFENCSEDLQER (UniProt O75828) | 0.421 | 0.245
47 | CASP1_P29466_362_LIEHMQEYACSCDVEEIFRK (UniProt P29466) | -0.0544 | 0.036
48 | CCDC47_Q96A33_283_EMQDLSEFCSDKPK (UniProt Q96A33) | 0.0239 | -0.125
49 | CAPN1_P07384_590_GFSLESCR (UniProt P07384) | 0.0866 | -0.0715
50 | CAST_P20810_408_AAAPAPVSEAVCR (UniProt P20810) | -0.143 | -0.278
51 | CCDC77_Q9BR77_164_IQNLLALVGTDAGEVTYFCK (UniProt Q9BR77) | 0.174 | -0.335
52 | CBX5_P45973_59_NLDCPELISEFMK (UniProt P45973) | -0.0596 | 0.0364
53 | CARD19_Q96LW7_77_DCQEFYR (UniProt Q96LW7) | -0.0317 | 0.116
54 | CAPN1_P07384_417_IRLDETDDPDDYGDRESGCSFVLALMQK (UniProt P07384) | -0.0697 | -0.14
55 | CAPG_P40121_77_DEQGACAVLAVHLNTLLGER (UniProt P40121) | 0.103 | 0.000983
56 | CARD9_Q9H257_454_GCLAGGGSPK (UniProt Q9H257) | -0.119 | -0.106
57 | CAPZA1_P52907_157_TIDGQQTIIACIESHQFQPK (UniProt P52907) | 0.0818 | 0.16
58 | CCAR2_Q8N163_644_PLSSGGEEEEKPRGEASEDLCEMALDPELLLLRDDGEEEFAGAK (UniProt Q8N163) | 0.365 | 0.0832
59 | CAPZB_P47756_147_GCWDSIHVVEVQEK (UniProt P47756) | 0.0922 | -0.0259
60 | CBX2_Q14781_89_KLTAMSSCSR (UniProt Q14781) | -0.13 | -0.306
61 | CAPRIN1_Q14444_226_PVCGTTYK (UniProt Q14444) | -0.0226 | 0.131
62 | CARS_P49589_335_ASKPGEPSWPCPWGK (UniProt P49589) | -0.0405 | -0.0636
63 | CAPZB_P47756_62_DYLLCDYNR (UniProt P47756) | -0.0337 | -0.0983

Whole records, quoted from the list. Values in the order: probe-labelled cysteine peptide fold change (10 µM)	probe-labelled cysteine peptide fold change (50 µM)
CARD9_Q9H257_454_GCLAGGGSPK (UniProt Q9H257) is entered as -0.119	-0.106
CAPZA1_P52907_157_TIDGQQTIIACIESHQFQPK (UniProt P52907) is entered as 0.0818	0.16
CARD19_Q96LW7_77_DCQEFYR (UniProt Q96LW7) is entered as -0.0317	0.116
CAPZA2_P47755_157_KIDGQQTIIACIESHQFQAK (UniProt P47755) is entered as 0.0477	0.155

Carrying on:

Row | Target | probe-labelled cysteine peptide fold change (10 µM) | probe-labelled cysteine peptide fold change (50 µM)
64 | CCT3_P49368_366_IGDEYFTFITDCK (UniProt P49368) | 0.137 | -0.167
65 | CARS_P49589_525_ALVSQCNLYMAAR (UniProt P49589) | -0.0945 | 0.026
66 | CASP10_Q92851_97_LLQHLNCTK (UniProt Q92851) | 0.0117 | -0.157
67 | CANX_P27824_360+366_CESAPGCGVWQRPVIDNPNYK (UniProt P27824) | -0.0154 | 0.0709
68 | CCT2_P78371_412_TVYGGGCSEMLMAHAVTQLANR (UniProt P78371) | -0.0947 | 0.0752
69 | CC2D1A_Q6P1N0_590_QQHEMCLNHSNQFTQLGNITETTK (UniProt Q6P1N0) | -0.0329 | -0.0806
70 | CARD6_Q9BX69_637_NMEGLQAALQEVMFSSCLR (UniProt Q9BX69) | 0.0602 | -0.306
71 | CCT2_P78371_395_SLHDALCVLAQTVK (UniProt P78371) | 0.0365 | -0.0967
72 | CC2D1B_Q5T0F9_809_LERLENECEIR (UniProt Q5T0F9) | 0.0806 | 0.00479
73 | CBLL1_Q75N03_109_DDTPVHFCDK (UniProt Q75N03) | 0.277 | 0.375
74 | CCNE2_O96020_109_NLFINPSPLPDLSWGCSK (UniProt O96020) | -0.108 | -0.377
75 | CCAR1_Q8IX12_937_DLLMAFVYFDQSHCGYLLEK (UniProt Q8IX12) | 0.653 | 0.739
76 | CANX_P27824_160_PFLFDTKPLIVQYEVNFQNGIECGGAYVK (UniProt P27824) | 0.154 | -0.281
77 | CAP1_Q01518_375_GKINSITVDNCK (UniProt Q01518) | 0.000915 | 0.111
78 | CAPN2_P17655_301_WNDNCPSWNTIDPEER (UniProt P17655) | 0.0959 | -0.0348
79 | CAPN1_P07384_678_YSEPDLAVDFDNFVCCLVR (UniProt P07384) | 0.039 | -0.0699
80 | CARS_P49589_405_YFLHTGHLTIAGCK (UniProt P49589) | 0.0834 | 0.0173
81 | CBL_P22681_572_RPLPCTPGDCPSR (UniProt P22681) | -0.0794 | 0.154
82 | CASP1_P29466_397_CFYLFPGH (UniProt P29466) | -0.182 | -0.00189
83 | CAPNS1_P04632_190_SGTICSSELPGAFEAAGFHLNEHLYNMIIRR (UniProt P04632) | -0.129 | 0.116
84 | CAP1_Q01518_93_ALLVTASQCQQPAENKLSDLLAPISEQIK (UniProt Q01518) | -0.11 | 0.282
